The values that follow come from paper PMC9169363.

By UniProt entry, the sequences of proteins in these tests, tags left out. Where a name states a change or a piece, a line headed by the entry shows the natural chain unless it says otherwise.
UniProt P06756: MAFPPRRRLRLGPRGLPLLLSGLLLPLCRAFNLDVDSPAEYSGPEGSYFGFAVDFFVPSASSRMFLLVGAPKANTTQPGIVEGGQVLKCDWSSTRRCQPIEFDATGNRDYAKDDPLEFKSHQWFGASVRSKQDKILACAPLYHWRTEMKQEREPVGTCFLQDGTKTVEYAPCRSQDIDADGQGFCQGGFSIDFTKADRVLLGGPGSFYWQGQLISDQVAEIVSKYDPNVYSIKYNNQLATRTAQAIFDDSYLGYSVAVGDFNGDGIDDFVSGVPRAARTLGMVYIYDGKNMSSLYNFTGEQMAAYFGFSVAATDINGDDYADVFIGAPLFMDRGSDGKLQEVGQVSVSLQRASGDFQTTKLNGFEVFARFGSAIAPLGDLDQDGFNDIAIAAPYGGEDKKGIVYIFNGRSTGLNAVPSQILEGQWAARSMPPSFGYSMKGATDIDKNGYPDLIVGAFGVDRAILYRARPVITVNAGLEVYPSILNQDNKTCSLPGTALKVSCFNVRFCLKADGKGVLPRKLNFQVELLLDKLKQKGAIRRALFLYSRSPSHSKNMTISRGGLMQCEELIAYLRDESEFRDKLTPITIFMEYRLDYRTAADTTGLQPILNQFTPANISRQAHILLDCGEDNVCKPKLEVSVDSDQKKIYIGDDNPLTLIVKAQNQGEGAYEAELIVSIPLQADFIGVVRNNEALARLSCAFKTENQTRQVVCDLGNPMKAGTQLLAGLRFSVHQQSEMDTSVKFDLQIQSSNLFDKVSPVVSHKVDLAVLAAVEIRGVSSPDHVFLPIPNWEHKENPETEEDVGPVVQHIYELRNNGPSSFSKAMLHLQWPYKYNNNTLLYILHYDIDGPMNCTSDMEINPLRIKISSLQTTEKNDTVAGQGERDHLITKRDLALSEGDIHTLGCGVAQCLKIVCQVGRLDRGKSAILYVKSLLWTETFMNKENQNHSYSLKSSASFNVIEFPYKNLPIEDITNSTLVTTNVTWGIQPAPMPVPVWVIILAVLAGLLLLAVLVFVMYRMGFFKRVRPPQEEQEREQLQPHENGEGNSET
UniProt P05106: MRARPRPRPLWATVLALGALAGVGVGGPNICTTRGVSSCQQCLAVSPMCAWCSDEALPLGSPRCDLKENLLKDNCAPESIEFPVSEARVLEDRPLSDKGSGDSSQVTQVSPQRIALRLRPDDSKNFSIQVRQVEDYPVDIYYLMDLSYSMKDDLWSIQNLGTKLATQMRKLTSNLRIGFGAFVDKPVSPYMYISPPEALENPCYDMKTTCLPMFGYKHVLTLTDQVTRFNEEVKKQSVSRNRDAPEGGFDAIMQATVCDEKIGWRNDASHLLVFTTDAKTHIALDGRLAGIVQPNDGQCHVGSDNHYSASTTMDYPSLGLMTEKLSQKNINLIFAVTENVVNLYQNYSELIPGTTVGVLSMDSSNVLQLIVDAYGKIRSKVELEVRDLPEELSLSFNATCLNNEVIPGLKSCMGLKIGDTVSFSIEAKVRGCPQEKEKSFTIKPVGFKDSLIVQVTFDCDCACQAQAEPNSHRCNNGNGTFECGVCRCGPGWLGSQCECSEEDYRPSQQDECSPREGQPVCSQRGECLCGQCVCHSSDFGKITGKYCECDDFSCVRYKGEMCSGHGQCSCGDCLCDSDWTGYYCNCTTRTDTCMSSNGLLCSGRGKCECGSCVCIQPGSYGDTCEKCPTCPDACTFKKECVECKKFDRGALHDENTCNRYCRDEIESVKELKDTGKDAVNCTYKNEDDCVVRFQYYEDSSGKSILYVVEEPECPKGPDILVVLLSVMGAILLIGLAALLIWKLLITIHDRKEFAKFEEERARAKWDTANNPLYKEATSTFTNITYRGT

This assay concerns the target integrin αvβ3 (human (endogenous in HUVECs)) (UniProt P06756+P05106). The experiment in a line: cellular uptake of fluorescent nanoparticles, confocal microscopy; HUVECs activated with 500 ng/mL LPS for 24 h; with or without 2 h pre-incubation with 5 μM cilengitide or 1 μg/mL c(RGDfC) peptide; then 50 μg/mL DIR@T/R NPs for 2 h, washed with PBS, fixed; DIR fluorescence by CLSM; only the binder purified.

These are yes or no findings as the source states them, for the method shown. Some entries that bind do so weakly or less than the wild type.

With RGDFC (cyclic peptide, printed as c(RGDfC)) [c(RGDfC) peptide, free], the binding result is reported as “binds”.
